Experimental data from PubChem BioAssay AID2073 (Sanford-Burnham Center for Chemical Genomics, 2009).
In all, about 290,000 compounds went through this assay and about 570 (0.2%) were called active. The shares of active, inactive and inconclusive entries below differ from those in the screen. No stated cut-off is given here; in the data, active means inhibition mostly above about 51% (no sharp cut-off); inconclusive means no clear call, values can overlap the other calls; inactive means mostly below about 53%.

By UniProt entry, the sequences of proteins in these tests, tags left out.
UniProt Q00975, whole entry, looked up: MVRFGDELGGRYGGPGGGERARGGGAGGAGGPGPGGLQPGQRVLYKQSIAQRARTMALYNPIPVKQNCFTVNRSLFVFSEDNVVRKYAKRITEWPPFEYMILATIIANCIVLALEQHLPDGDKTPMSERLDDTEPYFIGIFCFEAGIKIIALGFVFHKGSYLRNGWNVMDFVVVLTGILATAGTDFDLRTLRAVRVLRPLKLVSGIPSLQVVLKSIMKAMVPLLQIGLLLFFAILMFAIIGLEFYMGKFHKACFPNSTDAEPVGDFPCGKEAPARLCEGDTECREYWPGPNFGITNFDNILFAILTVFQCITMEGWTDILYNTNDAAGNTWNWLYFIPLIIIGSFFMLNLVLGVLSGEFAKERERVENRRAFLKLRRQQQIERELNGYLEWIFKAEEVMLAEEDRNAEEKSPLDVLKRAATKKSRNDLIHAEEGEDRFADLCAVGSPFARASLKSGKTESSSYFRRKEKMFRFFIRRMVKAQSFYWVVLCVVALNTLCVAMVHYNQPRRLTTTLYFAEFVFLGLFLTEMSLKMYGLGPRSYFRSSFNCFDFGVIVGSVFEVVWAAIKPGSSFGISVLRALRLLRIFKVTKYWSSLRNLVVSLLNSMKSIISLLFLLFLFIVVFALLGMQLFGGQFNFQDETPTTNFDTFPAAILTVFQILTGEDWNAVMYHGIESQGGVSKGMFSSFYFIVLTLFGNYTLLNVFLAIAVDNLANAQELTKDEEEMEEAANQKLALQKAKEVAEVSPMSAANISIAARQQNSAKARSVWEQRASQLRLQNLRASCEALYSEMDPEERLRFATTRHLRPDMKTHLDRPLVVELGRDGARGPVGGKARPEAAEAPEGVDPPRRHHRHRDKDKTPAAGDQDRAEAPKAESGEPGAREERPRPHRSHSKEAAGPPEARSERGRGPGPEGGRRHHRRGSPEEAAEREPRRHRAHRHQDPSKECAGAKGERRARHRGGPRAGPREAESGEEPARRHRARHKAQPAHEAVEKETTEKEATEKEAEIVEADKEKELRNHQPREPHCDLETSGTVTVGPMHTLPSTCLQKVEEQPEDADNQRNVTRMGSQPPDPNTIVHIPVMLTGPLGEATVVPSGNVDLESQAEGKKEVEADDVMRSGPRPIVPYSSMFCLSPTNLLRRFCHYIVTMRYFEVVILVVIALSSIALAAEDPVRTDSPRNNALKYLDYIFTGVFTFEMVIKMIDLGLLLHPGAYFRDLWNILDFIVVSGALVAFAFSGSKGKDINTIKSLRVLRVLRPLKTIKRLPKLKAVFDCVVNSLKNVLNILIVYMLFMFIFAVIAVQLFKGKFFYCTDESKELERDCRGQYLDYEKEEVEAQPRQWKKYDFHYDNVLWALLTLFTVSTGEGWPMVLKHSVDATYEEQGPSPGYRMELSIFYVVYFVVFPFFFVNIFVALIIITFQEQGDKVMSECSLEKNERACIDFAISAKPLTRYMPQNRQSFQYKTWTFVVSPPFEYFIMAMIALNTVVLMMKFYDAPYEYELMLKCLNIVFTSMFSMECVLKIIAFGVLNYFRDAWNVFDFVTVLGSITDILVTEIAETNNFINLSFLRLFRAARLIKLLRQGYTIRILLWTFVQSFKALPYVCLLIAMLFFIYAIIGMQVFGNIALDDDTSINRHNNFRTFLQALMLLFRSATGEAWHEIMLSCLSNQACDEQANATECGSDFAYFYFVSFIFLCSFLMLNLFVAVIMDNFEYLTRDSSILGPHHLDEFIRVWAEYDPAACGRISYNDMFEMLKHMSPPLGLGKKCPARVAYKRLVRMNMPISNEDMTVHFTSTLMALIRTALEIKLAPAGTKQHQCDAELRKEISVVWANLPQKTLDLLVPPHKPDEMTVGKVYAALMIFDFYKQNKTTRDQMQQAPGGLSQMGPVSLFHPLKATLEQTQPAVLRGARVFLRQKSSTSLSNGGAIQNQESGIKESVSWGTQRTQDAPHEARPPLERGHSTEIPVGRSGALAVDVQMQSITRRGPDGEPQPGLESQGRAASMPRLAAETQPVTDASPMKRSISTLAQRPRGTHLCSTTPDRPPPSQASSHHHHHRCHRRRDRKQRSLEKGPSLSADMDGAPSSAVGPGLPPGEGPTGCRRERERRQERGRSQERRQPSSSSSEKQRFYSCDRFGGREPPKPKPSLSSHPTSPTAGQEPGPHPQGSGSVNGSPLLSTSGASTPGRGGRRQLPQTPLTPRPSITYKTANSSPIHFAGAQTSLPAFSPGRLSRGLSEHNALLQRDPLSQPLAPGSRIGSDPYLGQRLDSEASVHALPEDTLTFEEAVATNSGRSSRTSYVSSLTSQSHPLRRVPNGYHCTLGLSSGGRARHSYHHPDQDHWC

These compounds were tested against Voltage-dependent N-type calcium channel subunit alpha-1B (Homo sapiens) (UniProt Q00975) (assay: disruptors of CaV2.2 binding to Mint1 – biochemical, HTRF (AID 2073)). Details: HTRF protein-protein interaction, Mint1-CaV2.2; at 20 µM; hits give high values.
For CCOc1ccc(CN(C)CC(=O)Nc2ccc3c(c2)CCC3)cc1OC, the inhibition was inconclusive: 59.3%.
In the case of O=c1[nH]c(N2CCc3ccccc3C2)nc2c1CCC2, the inhibition is reported as inconclusive: 54%.
With CCNc1ccc(Br)cc(C(=O)/C=C/c2ccc(Cl)cc2Cl)c1=O the inhibition was inactive: 23.6%.
For CCn1nc(C)c(CNC(=O)c2cc(COc3ccc(F)cc3Cl)on2)c1C, the inhibition was inconclusive: 74.1%.
For O=C(CSc1nc2ccccc2[nH]1)N1CCN(c2ccc(F)cc2)CC1, the inhibition was inconclusive: 80.3%.
In the case of N#CC1=C(N)SC(N)=C(C#N)C1c1ccc([N+](=O)[O-])cc1, the inhibition is reported as inactive: 68.2%.
For O=C(NC(=S)Nc1ccc(Br)cn1)c1cccs1, the inhibition was inconclusive: 78.3%.
For COc1cc2ccccc2nn1, the inhibition was inactive: 22.3%.
C/C(=N\Nc1ccccn1)c1ccc(N2CCOCC2)cc1 was tested, and the inhibition was inconclusive: 91.5%.
In the case of COc1ccc(Nc2ncnc3sc(C)cc23)c(OC)c1, the inhibition is reported as inconclusive: 66.4%.
For CCOc1ccccc1NC(=O)Cn1cnc2c(nnn2-c2cccc(OC)c2)c1=O, the inhibition was inconclusive: 74.5%.
In the case of OCc1ccccc1N=c1ssnc1Cl, the inhibition is reported as inactive: 9.9%.
Cc1nc(SCCC(=O)O)c2ccccc2n1 was tested, and the inhibition was inconclusive: 52.8%.
With COc1ccc(SC[C@H](Cc2ccccc2)N2CCN(C)CCC2=O)cc1 the inhibition was inconclusive: 57.3%.
In the case of Cc1c(C(=O)N2CCN(Cc3ccccc3)CC2)oc2c1C(=O)CC(C)(C)C2, the inhibition is reported as inconclusive: 61.2%.
For Cc1ccc(N(C(=O)c2ccco2)C(C(=O)NC2CCCC2)c2cccnc2)cc1 (configuration not stated), the inhibition was inactive: -0.3%.
With CNC(=O)c1sc(N2N=C3/C(=C/c4ccccc4)CCCC3C2c2ccccc2)nc1C (configuration not stated) the inhibition was inconclusive: 53.1%.
For Cc1ccc(Sc2nc3c(c(=O)[nH]c(=O)n3C)n2CCc2ccccc2)cc1, the inhibition was inconclusive: 73.9%.
In the case of CCN(CC)C(=O)CSc1ncnc2c(-c3ccc(OC)cc3)nsc12, the inhibition is reported as inconclusive: 52.8%.
In the case of CC(=O)CC1(O)C(=O)Nc2ccccc21 (configuration not stated), the inhibition is reported as inactive: 33.4%.
Nc1c(C(=O)Nc2ccc(Br)cc2)sc2nc(-c3ccco3)ccc12 was tested, and the inhibition was inconclusive: 51.6%.
CN(CCO)CCOCCOc1cccc2ccccc12 was tested, and the inhibition was inconclusive: 59.8%.
For Nc1ccc2nn(-c3ccc(Cl)cc3)nc2c1, the inhibition was inconclusive: 54.2%.
With CCOC(=O)c1ccc(Nc2ncnc3nc[nH]c23)cc1 the inhibition was inconclusive: 97.4%.
For O=C(Nc1cccc(S(=O)(=O)N2CCOCC2)c1)c1c2c(nc3ccccc13)CCC2, the inhibition was active: 56%.
In the case of CC(=O)Nc1ccc(NC(=S)Nc2ccc(F)cc2)cc1, the inhibition is reported as inconclusive: 68.4%.
O=C1CC(c2ccc(F)cc2)Cc2nc(N3CCc4ccccc43)ncc21 (configuration not stated) was tested, and the inhibition was inconclusive: 77.1%.
With CCN(CC)CCn1c(SCC(=O)Nc2cccc(OC)c2)nc2c(sc3ccccc32)c1=O the inhibition was inconclusive: 59.4%.
Cc1ccc(CNc2ccc(S(=O)(=O)N3CCOCC3)cc2[N+](=O)[O-])cc1 was tested, and the inhibition was inconclusive: 50.1%.
In the case of Cc1cc(C=C2C(=O)CCCC2=O)c(C)n1-c1ccccc1, the inhibition is reported as inconclusive: 83.6%.
With COc1cc(C2Nc3cccc4cccc(c34)N2)cc(OC)c1OC(C)=O the inhibition was active: 77.3%.
O=C(/C=C(\O)c1ccccc1)C(=O)NNC(=O)c1ccccc1 was tested, and the inhibition was inconclusive: 60.6%.
COc1ccc(CN2C(=O)Cc3c2nc(N)c2c(N)nc(N4CCCCC4)c(C#N)c32)cc1 was tested, and the inhibition was inactive: 24.2%.
In the case of O=C1C=C(Nc2ccccc2)C(=O)c2ccccc21, the inhibition is reported as inconclusive: 78%.
With CCOc1cc(C2NC(=O)NC(c3ccccc3)=C2C(C)=O)ccc1OCC(N)=O (configuration not stated) the inhibition was inconclusive: 62.2%.
With COc1cc2ccccc2cc1C(=O)Nc1ccccc1N1CCN(S(C)(=O)=O)CC1 the inhibition was inconclusive: 58.6%.
In the case of C[C@H](NC(=O)c1ccc2c(c1)OCO2)c1nnc2ccccn12, the inhibition is reported as inconclusive: 84.2%.
With Cn1c(COc2ccc(Br)cc2)nnc1SC1CCc2ccccc2C1=O (configuration not stated) the inhibition was inconclusive: 77.6%.
With O=C(COC(=O)CCNS(=O)(=O)c1cccc(C(F)(F)F)c1)NC(=O)NC1CCCCC1 the inhibition was inconclusive: 54.2%.
In the case of COc1ccc(C2c3c(oc4ccc(C)cc4c3=O)C(=O)N2c2cc(C)ccn2)cc1OC (configuration not stated), the inhibition is reported as inconclusive: 58%.
O=C(Cc1c(F)cccc1Cl)N1CCN(C(=O)c2ccco2)CC1 was tested, and the inhibition was inconclusive: 97.5%.
For Cc1c(-c2ccc(/C=N/NC(=O)C(=O)Nc3ccccc3F)o2)cccc1[N+](=O)[O-], the inhibition was inconclusive: 50.2%.
COc1ccc(CCN2CC(C(=O)NCCN3CCOC3=O)CCC2=O)cc1 (configuration not stated) was tested, and the inhibition was inconclusive: 53%.
With O=C(OCc1cc(=O)n2c(n1)sc1ccccc12)c1ccc(O)cc1 the inhibition was inactive: 30.3%.
In the case of CC(=O)NCCNc1nc2c(-c3cccc(C(F)(F)F)c3)nnn2c2ccccc12, the inhibition is reported as inconclusive: 52%.
With O=C1CCC[C@@H]2[C@H]3CCC[N+]4([O-])CCC[C@@H](CN12)[C@@H]34 (some centres not stated) the inhibition was inconclusive: 55.4%.
For Cc1nc2ccc(NC(=O)c3ccc(Cl)c(S(=O)(=O)N(C)c4ccccc4)c3)cc2s1, the inhibition was inconclusive: 61.3%.
COc1ccc2c(Cl)c(C(=O)N/N=C3\CCCC(=O)C3)sc2c1 was tested, and the inhibition was active: 50.9%.
For COc1ccc(-c2[nH]c(-c3ccc(C(=O)O)cc3)nc2-c2ccccc2)cc1, the inhibition was inconclusive: 57.7%.
CCC(=O)N1CCc2cc(S(=O)(=O)CCC(=O)Nc3ccc(OC)c(OC)c3)ccc21 was tested, and the inhibition was inactive: 5.3%.
With Cc1ccccc1C(=O)NC(NC(=O)c1ccccc1C)c1cccc([N+](=O)[O-])c1 the inhibition was inconclusive: 67.4%.
With CN1C(=O)c2cccc3c(S(=O)(=O)N(C)C)ccc1c23 the inhibition was inconclusive: 57.9%.
In the case of Cc1ccc(-n2ncc3c2CCCC3NC(=O)CCn2ccnc2C)cc1C (configuration not stated), the inhibition is reported as inactive: -3.7%.
With Cc1ccccc1OCC(=O)N/N=C/c1cn(Cc2ccccc2)c2ccccc12 the inhibition was inconclusive: 83.3%.
In the case of O=C(OCCN1C(=O)c2cccc3c(N4CCOCC4)ccc(c23)C1=O)c1cc(Cl)cc(Cl)c1, the inhibition is reported as inconclusive: 73.3%.
For O=C(O)Cc1c[nH]c2cccc(O)c12, the inhibition was inconclusive: 52%.
With O=C(CCCn1c(=S)[nH]c2ccccc2c1=O)NC1CCCC1 the inhibition was inactive: -32.5%.
